# Experimental data reported in paper PMC5996148.
# Protein sequences, listed by entry. Tags and fused reporters are not part of them. Lines headed by an entry give the natural chain unless they say otherwise; changes in a name come on top.
# UniProt Q9BY49: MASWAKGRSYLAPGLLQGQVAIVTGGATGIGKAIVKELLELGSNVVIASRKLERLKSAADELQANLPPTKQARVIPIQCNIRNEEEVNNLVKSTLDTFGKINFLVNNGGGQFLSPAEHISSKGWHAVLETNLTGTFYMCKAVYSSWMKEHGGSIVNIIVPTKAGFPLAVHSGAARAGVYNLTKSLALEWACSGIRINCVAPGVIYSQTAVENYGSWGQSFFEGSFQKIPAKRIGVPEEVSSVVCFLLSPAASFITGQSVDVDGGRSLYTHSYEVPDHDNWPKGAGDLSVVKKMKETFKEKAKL
# The other results are listed elsewhere or left out. For some of these results: Construct or isoform of the protein are uncertain.
# Key:
# Assay in all cases: protein microarray (ProtoArray v5.0), streptavidin-Alexa Fluor 647
# Settings in all cases: 3'-biotin; 20 mM Tris (pH 7.5), 5 mM MgCl2, 100 mM KCl, 0.1% Tween-20, A/T-rich and random oligonucleotide blockers; temperature not stated; high values mean tight binding
# PDK4 (human) = test system: PDK4 (human)
# [1] = test system: PDZ and LIM domain protein 3 (human)
# [2] = test system: PDZ and LIM domain protein 4 (human)
# PDZD11 (human) = test system: PDZD11 (human)
# [3] = test system: PDZK1-interacting protein 1 (human)
# PDZK1IP1 (human) = test system: PDZK1IP1 (human)
# PECR = PECR (UniProt Q9BY49)
# PEMT = target: T1, PEMT (UniProt Q9UBM1)
# T1 sequence: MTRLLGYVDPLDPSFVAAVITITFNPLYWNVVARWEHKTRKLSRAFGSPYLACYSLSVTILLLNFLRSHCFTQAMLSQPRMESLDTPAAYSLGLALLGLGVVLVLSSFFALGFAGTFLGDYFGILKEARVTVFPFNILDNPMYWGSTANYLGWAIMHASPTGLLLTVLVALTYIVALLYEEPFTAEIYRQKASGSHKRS
# PEPD (human) = test system: PEPD (human)
# PEX11B (human) = test system: PEX11B (human)
sequence,measurement,setting,value
GGGGACAGGGGTATGGGGAGGGG [G4-3 biotinylated (CtG)],binding signal,PDK4 (human),-0.333 z-score
same,binding signal,[1],-0.332 z-score
same,binding signal,[2],-0.309 z-score
same,binding signal,PDZD11 (human),-0.324 z-score
same,binding signal,[3],-0.317 z-score
same,binding signal,PDZK1IP1 (human),-0.315 z-score
same,binding signal,PECR,4.12 z-score
same,binding signal,PEMT,-0.304 z-score
same,binding signal,PEPD (human),-0.334 z-score
same,binding signal,PEX11B (human),-0.315 z-score
